Patent US20050059588A1, “Peptides which generate antibodies resulting in lysis of pathologically adherent erythrocytes” (REGENTS OF THE UNIVERSITY OF CALIFORNIA, priority 2003, published 2005)

The chains behind the UniProt entries cited, without tags or fusion partners. Where a name states a change or a piece, a line headed by the entry shows the natural chain unless it says otherwise.
UniProt P16671: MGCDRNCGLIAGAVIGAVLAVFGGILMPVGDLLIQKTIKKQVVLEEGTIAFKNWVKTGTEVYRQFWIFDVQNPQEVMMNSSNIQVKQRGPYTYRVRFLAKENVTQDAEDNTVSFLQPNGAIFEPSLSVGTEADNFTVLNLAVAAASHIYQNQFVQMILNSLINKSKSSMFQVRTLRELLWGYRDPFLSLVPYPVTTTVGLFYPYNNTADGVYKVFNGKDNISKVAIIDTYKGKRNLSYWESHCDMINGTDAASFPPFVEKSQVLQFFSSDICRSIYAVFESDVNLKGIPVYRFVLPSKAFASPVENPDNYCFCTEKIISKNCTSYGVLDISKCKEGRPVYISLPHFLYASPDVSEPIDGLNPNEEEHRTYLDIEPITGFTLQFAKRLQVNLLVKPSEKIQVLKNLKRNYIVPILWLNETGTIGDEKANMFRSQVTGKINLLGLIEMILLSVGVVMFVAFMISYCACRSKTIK

Target: Partially purified CD36 (CD36 fraction) from human platelets, immobilized (human) (UniProt P16671)
Experiment: cytoadherence inhibition: immobilized CD36 pretreated with peptide, bound IEs counted

Question: With YETFSKLIKIFQDH [DBR peptide (peptide derived from the DIDS binding region of human AE1)] as the binder, how does the binding read?
Answer: binds

Results are given in words; binding and its absence hold for the method and conditions named. Binding can be weak; no strength is given.
